In the supplement of paper PMC9744312:
Where a name gives a salt, the structure may show the parent alone. Some of the results follow. Single values of this set are uncertain.

Tested on: Peyronie's disease tunica albuginea primary fibroblasts
Experiment: inhibition of TGF-beta1-induced alpha-SMA expression (myofibroblast transformation), relative to TGF-beta1-only and untreated controls; higher = stronger inhibition of myofibroblast transformation
Settings: 10 µM; TGF-beta1 10 ng/mL; 72 h

| Compound | inhibition of TGF-beta1-induced alpha-SMA expression |
| --- | --- |
| Cc1c(-c2ccc(O)cc2)n(Cc2ccc(OCCN3CCCCCC3)cc2)c2ccc(O)cc12 [Bazedoxifene Acetate] | 72.4% |
| Cc1c(-c2ccc(O)cc2)n(Cc2ccc(OCCN3CCCCCC3)cc2)c2ccc(O)cc12 [Bazedoxifene HCl] | 39% |
| NC[C@H](O)c1ccc(O)c(O)c1 [Noradrenaline bitartrate monohydrate] | -7.32% |
| CCN(CC)CCNC(=O)c1ccc(N)cc1 [Procainamide HCl] | 32.5% |
| CC[C@H]1OC(=O)[C@H](C)[C@@H](O[C@H]2C[C@@](C)(OC)[C@@H](O)[C@H](C)O2)[C@H](C)[C@@H](O[C@@H]2O[C@H](C)C[C@H](N(C)C)[C@H]2O)[C@](C)(O)C[C@@H](C)CN(C)[C@H](C)[C@@H](O)[C@]1(C)O [Azithromycin] | 42.2% |
| CC[C@H]1OC(=O)[C@H](C)[C@@H](O[C@H]2C[C@@](C)(OC)[C@@H](O)[C@H](C)O2)[C@H](C)[C@@H](O[C@@H]2O[C@H](C)C[C@H](N(C)C)[C@H]2O)[C@](C)(O)C[C@@H](C)CN(C)[C@H](C)[C@@H](O)[C@]1(C)O [Azithromycin Dihydrate] | 21.8% |
| CN1CCc2nc(C(=O)N[C@@H]3C[C@@H](C(=O)N(C)C)CC[C@@H]3NC(=O)C(=O)Nc3ccc(Cl)cn3)sc2C1 [Edoxaban tosylate Monohydrate] | 44.8% |
| CN1CCc2nc(C(=O)N[C@@H]3C[C@@H](C(=O)N(C)C)CC[C@@H]3NC(=O)C(=O)Nc3ccc(Cl)cn3)sc2C1 [Edoxaban] | 10.9% |
| CN[C@H]1CC[C@@H](c2ccc(Cl)c(Cl)c2)c2ccccc21 [Sertraline HCl] | -5.83% |
| O=C(O)c1cccc(-c2noc(-c3ccccc3F)n2)c1 [Ataluren (PTC124)] | -0.0335% |
| Nc1ccc(S(=O)(=O)Nc2nccs2)cc1 [Sulfathiazole] | 18.3% |
| CC(C)[N+]1(C)[C@@H]2CC[C@H]1C[C@@H](OC(=O)C(CO)c1ccccc1)C2 (stereo partly drawn) [Ipratropium Bromide] | 12.1% |
| Cc1ccc(-c2cc(C(F)(F)F)nn2-c2ccc(S(N)(=O)=O)cc2)cc1 [Celecoxib] | 57.5% |
| CC(C)NCC(O)COc1ccc(CC(N)=O)cc1 (stereo not drawn) [Atenolol] | 55.5% |
| CCOC(=O)[C@H]1O[C@@H]1C(=O)N[C@@H](CC(C)C)C(=O)NCCC(C)C [Aloxistatin] | 11.8% |
| CC(C)(C)c1cc(C(C)(C)C)c(NC(=O)c2c[nH]c3ccccc3c2=O)cc1O [Ivacaftor (VX-770)] | -9.84% |
| Cc1ccc([C@@H]2O[C@H](CO)[C@@H](O)[C@H](O)[C@H]2O)cc1Cc1ccc(-c2ccc(F)cc2)s1 [Canagliflozin] | 11.8% |
| CN1CCN(CC(=O)N2c3ccccc3C(=O)Nc3cccnc32)CC1 [Pirenzepine dihydrochloride] | 24.6% |
| Cn1c(=O)c2c(ncn2CC2OCCO2)n(C)c1=O [Doxofylline] | -7.01% |
| NC(=O)[C@@H]1CSSCCC(=O)N[C@@H](CCCCN=C(N)N)C(=O)NCC(=O)N[C@@H](CC(=O)O)C(=O)N[C@@H](Cc2c[nH]c3ccccc23)C(=O)N2CCC[C@H]2C(=O)N1 [Eptifibatide Acetate] | 7.53% |
| CC[C@H](C)[C@H](N)C(=O)O [isoleucine] | 15.5% |
| CCOc1nc2cccc(C(=O)O)c2n1Cc1ccc(-c2ccccc2-c2nnn[nH]2)cc1 [Candesartan] | -3.55% |
| C[C@@](Cc1ccc(O)c(O)c1)(NN)C(=O)O [Carbidopa] | -1.25% |

| Compound | inhibition of TGF-beta1-induced alpha-SMA expression |
| --- | --- |
| Nc1ncnc2c1ncn2[C@@H]1O[C@H](CO)[C@@H](O)[C@@H]1O [Vidarabine monohydrate] | -9.59% |
| Nc1ncnc2c1ncn2[C@@H]1O[C@H](CO)[C@@H](O)[C@@H]1O [Vidarabine] | 4.43% |
| CCCCC(CC)COC(=O)CC(C(=O)OCC(CC)CCCC)S(=O)(=O)O (stereo not drawn) [Docusate Sodium] | -44.8% |
| CCCCCCCCCC(=O)N[C@@H](Cc1c[nH]c2ccccc12)C(=O)N[C@H](CC(N)=O)C(=O)N[C@@H](CC(=O)O)C(=O)N[C@@H]1C(=O)NCC(=O)N[C@@H](CCCN)C(=O)N[C@@H](CC(=O)O)C(=O)N[C@H](C)C(=O)N[C@@H](CC(=O)O)C(=O)NCC(=O)N[C@H](CO)C(=O)N[C@@H]([C@H](C)CC(=O)O)C(=O)N[C@@H](CC(=O)c2ccccc2N)C(=O)O[C@@H]1C [Daptomycin] | 10.9% |
| COc1cccc2c1C(=O)c1c(O)c3c(c(O)c1C2=O)CC(O)(C(=O)CO)CC3OC1CC(N)C(O)C(C)O1 (stereo not drawn) [Doxorubicin (Adriamycin) HCl] | > 100% |
| COc1cc(Nc2c(C#N)cnc3cc(OCCCN4CCN(C)CC4)c(OC)cc23)c(Cl)cc1Cl [Bosutinib (SKI-606)] | > 100% |
| CCCCc1oc2ccc(NS(C)(=O)=O)cc2c1C(=O)c1ccc(OCCCN(CCCC)CCCC)cc1 [Dronedarone HCl] | > 100% |
| CCC1(c2ccccc2)C(=O)NCNC1=O [Primidone] | 28.6% |
| COC(=O)C1=C(C)NC(C)=C(C(=O)OC(C)(C)CN(C)CCC(c2ccccc2)c2ccccc2)C1c1cccc([N+](=O)[O-])c1 (stereo not drawn) [Lercanidipine hydrochloride] | -6.17% |
| CN(C)CCC(c1ccc(Br)cc1)c1ccccn1 (stereo not drawn) [Brompheniramine hydrogen maleate] | 2.39% |
| c1ccc(-c2ccc(C(c3ccccc3)n3ccnc3)cc2)cc1 (stereo not drawn) [Bifonazole] | 7.18% |
| Oc1c(Cl)cc(Cl)c2cccnc12 [Chloroxine] | 14.4% |
| O=C1CC[C@@H](C(=O)N2CSC[C@H]2C(=O)O)N1 [Pidotimod] | 15.7% |
| O=c1[nH]c2ccccc2n1CCN1CCN(c2cccc(C(F)(F)F)c2)CC1 [Flibanserin] | 16.7% |
| O=C(c1ccc(F)cc1)C1CCN(CCn2c(=O)[nH]c3ccccc3c2=O)CC1 [Ketanserin] | 12.8% |
| Cc1[nH]cnc1CN1CCc2c(c3ccccc3n2C)C1=O [Alosetron Hydrochloride] | 11.2% |
| CC1(C)OC[C@@H](COC(=O)CCc2ccc(OC[C@@H](O)CNCCNC(=O)N3CCOCC3)cc2)O1 [Landiolol hydrochloride] | 8.97% |
| CCS(=O)(=O)N1CC(CC#N)(n2cc(-c3ncnc4[nH]ccc34)cn2)C1 | -4.35% |
| Clc1ccc2c(c1)CCc1cccnc1C2=C1CCNCC1 [Desloratadine] | 58.5% |
| O=C1NCC2(CCN(CCc3ccccc3)CC2)O1 [Fenspiride HCl] | 45.8% |
| Cc1cnc(Nc2ccc(OCCN3CCCC3)cc2)nc1Nc1cccc(S(=O)(=O)NC(C)(C)C)c1 | > 100% |
| CC(=O)O[C@]1(C(C)=O)CC[C@H]2[C@@H]3C=C(Cl)C4=CC(=O)CC[C@]4(C)[C@H]3CC[C@@]21C [Chlormadinone acetate] | 19.1% |
| CCCNC(=O)NS(=O)(=O)c1ccc(Cl)cc1 [Chlorpropamide] | 4.62% |

3 neighbouring records from above:

| Compound | inhibition of TGF-beta1-induced alpha-SMA expression |
| --- | --- |
| Nc1ncnc2c1ncn2[C@@H]1O[C@H](CO)[C@@H](O)[C@@H]1O [Vidarabine] | 4.43% |
| CCCCC(CC)COC(=O)CC(C(=O)OCC(CC)CCCC)S(=O)(=O)O (stereo not drawn) [Docusate Sodium] | -44.8% |
| CCCCCCCCCC(=O)N[C@@H](Cc1c[nH]c2ccccc12)C(=O)N[C@H](CC(N)=O)C(=O)N[C@@H](CC(=O)O)C(=O)N[C@@H]1C(=O)NCC(=O)N[C@@H](CCCN)C(=O)N[C@@H](CC(=O)O)C(=O)N[C@H](C)C(=O)N[C@@H](CC(=O)O)C(=O)NCC(=O)N[C@H](CO)C(=O)N[C@@H]([C@H](C)CC(=O)O)C(=O)N[C@@H](CC(=O)c2ccccc2N)C(=O)O[C@@H]1C [Daptomycin] | 10.9% |

Next part

| Compound | inhibition of TGF-beta1-induced alpha-SMA expression |
| --- | --- |
| COc1ccc(Cl)c(Nc2nc3ccccc3nc2NS(=O)(=O)c2cccc(NC(=O)C(C)(C)N)c2)c1 [Pilaralisib (XL147)] | 11.9% |
| Cc1cc(O)c(C(=O)N[C@@H](C(=O)N[C@@H]2C(=O)N3C(C(=O)O)=C(CSc4nnnn4C)CS[C@H]23)c2ccc(O)cc2)cn1 [Cefpiramide sodium] | 26.1% |
| CCCCCOc1ccccc1/C(=C\SC)n1ccnc1 [Neticonazole Hydrochloride] | 44.9% |
| CO[C@H]1/C=C/O[C@@]2(C)Oc3c(C)c(O)c4c(O)c(c5c(nc6cc(C)ccn65)c4c3C2=O)NC(=O)/C(C)=C\C=C\[C@H](C)[C@H](O)[C@@H](C)[C@@H](O)[C@@H](C)[C@H](OC(C)=O)[C@@H]1C [Rifaximin] | -10.1% |
| C[C@]12C=CC(=O)N[C@@H]1CC[C@@H]1[C@@H]2CC[C@]2(C)[C@@H](C(=O)Nc3cc(C(F)(F)F)ccc3C(F)(F)F)CC[C@@H]12 [Dutasteride] | 30.2% |
| Clc1cccc(Cl)c1NC1=NCCN1 [Clonidine HCl] | 11.3% |
| Nc1nc2c(ncn2COC(CO)CO)c(=O)[nH]1 [Ganciclovir] | -7.28% |
| NCCCCCC(=O)O [(6-)ε-?Aminocaproic acid] | 4.61% |
| CN(C)C(=N)NC(=N)N [Metformin HCl] | 2.22% |
| CNCCc1ccccn1 [Betahistine] | 18% |
| CNCCc1ccccn1 [Betahistine 2HCl] | 9.67% |
| CNCCc1ccccn1 [Betahistine mesylate] | 54.3% |
| Cc1nc2c([nH]1)-c1ccccc1N(C(=O)c1ccc(NC(=O)c3ccccc3-c3ccccc3)cc1)CC2 [Conivaptan HCl] | 17.7% |
| CCCNC(C)C(=O)Nc1c(C)csc1C(=O)OC (stereo not drawn) [Articaine HCl] | 5.4% |
| NCCC(O)(P(=O)(O)O)P(=O)(O)O [Pamidronate Disodium] | 26.5% |
| CC(C[N+](C)(C)C)OC(N)=O (stereo not drawn) [Bethanechol chloride] | -8.21% |
| COc1ccc2c(c1)C(=O)N(CCc1ccc(S(=O)(=O)NC(=O)NC3CCCCC3)cc1)C(=O)C2(C)C [Gliquidone] | 11.9% |
| NS(=O)(=O)Cc1noc2ccccc12 [Zonisamide] | 70.5% |
| Cc1cn([C@H]2C[C@H](N=[N+]=[N-])[C@@H](CO)O2)c(=O)[nH]c1=O [Zidovudine] | -4.02% |
| COc1ccc([C@@H]2Sc3ccccc3N(CCN(C)C)C(=O)[C@@H]2OC(C)=O)cc1 [Diltiazem HCl] | -6.13% |
| Cc1ccc(C)c(OCCCC(C)(C)C(=O)O)c1 [Gemfibrozil] | -4.29% |
| O=C(O)C[C@H](O)C[C@H](O)/C=C/c1c(C2CC2)nc2ccccc2c1-c1ccc(F)cc1 [Pitavastatin Calcium] | > 100% |
